In US20250011722A1, “HEPATIC ORGANOIDS” (Koninklijke Nederlandse Akademie van Wetenschappen, priority 2021, published 2025):
At least one structure is not confirmed: it was looked up by name or label, or the drawing left a doubt.

Tests used:
[1] = US FDA rejection (Mullard, 2020); cited from earlier work
APOB^−/− organoids = test: anti-NAFLD drug screening, Nile Red lipid staining and lipid score; assay type: cell-based, human; details: APOB^−/− organoids exposed to drugs for 7 days
Method: (§1) Compound stocks of all drugs were made in DMSO, except for recombinant hFGF19 and hFGF21 which were reconstituted in AdvDMEM+++. Drugs were dissolved in HEP medium with a maximum final concentration of 0.2% DMSO. The drug panel, their targets, and concentrations tested are described in Table 2.
(§2) APOB^−/− and MTTP^−/− organoids were exposed to the drugs or vehicle in 24-well plates for 7 days with 2 medium changes. Wild type organoids were first made steatotic by pre-incubation with 500 μM FFAs (oleic acid and palmitic acid, 1:1 ratio) for 2 days. Then, FFA-loaded organoids were treated with the different drugs, still in the presence of FFA, for 7 days with 2 medium changes. […] Drug effects were evaluated by observing the lipid droplet fluorescence characteristics within all organoids within the whole well. Quantitative analyses were performed in representative organoids (n≥3) per drug concentration per steatosis organoid model. […] Images and fluorescence quantifications are representative of two independent experiments. […]
(§3) Stained organoids were imaged on a Leica Sp8 confocal. […] The lipid score was calculated using Fiji software. The lipid score is defined by integrating the lipid droplet fluorescence and lipid droplet area coverage as follows: a fluorescence threshold derived from the lipid droplet signal is determined on Z-projected images to convert them into binary images. […]

MTTP^−/− organoids = test: as above; assay type: cell-based, human; details: MTTP^−/− organoids exposed to drugs for 7 days
Method: as §1, §2, §3

Row | Structure (SMILES) | liver fibrosis reduction endpoint in treatment of NASH [1] | steatosis phenotype (lipid staining, lipid score) (APOB^−/− organoids) | steatosis phenotype (lipid staining, lipid score) (MTTP^−/− organoids)
1 | CC[C@H]1[C@@H](O)[C@@H]2[C@H](CC[C@]3(C)[C@@H]([C@H](C)CCC(=O)O)CC[C@@H]23)[C@@]2(C)CC[C@@H](O)C[C@@H]12 [Obeticholic acid] | failed to meet the liver fibrosis reduction endpoint | – | –
2 | Oc1c2ccccc2c2c3c(cccc13)N=N2 [JNKi, SP600125] | – | did not alter the steatosis phenotype | did not alter the steatosis phenotype
